No constants are given. Whether binding was seen depends on the method and setting. Binding seen in cells or lysates may run through a third protein. Binding can be weak; no strength is given. Where a sequence is shown, tags or fusion partners need not be part of it.
Legend:
Assay in all cases: co-IP; 293T cells co-transfected, lysates at 48 h in co-IP buffer (50 mM Tris-Cl pH 7.4, 50 mM NaF, 5 mM sodium phosphate, 0.1% Triton X-100); antibody to the tag 16 h at 4°C, protein A- and G-Sepharose, 7 washes; immunoblot
[1] = target: myc-ORF RL1 (HCMV)
[2] = target: myc-ORF UL19 (HCMV)
[3] = target: myc-ORF UL21A (HCMV)
[4] = target: myc-ORF UL30 (HCMV)

Measured: binding

B1: HA-UBE1L (enzyme, UniProt P41226 1-1012)
chain: MDALDASKLLDEELYSRQLYVLGSPAMQRIQGARVLVSGLQGLGAEVAKNLVLMGVGSLTLHDPHPTCWSDLAAQFLLSEQDLERSRAEASQELLAQLNRAVQVVVHTGDITEDLLLDFQVVVLTAAKLEEQLKVGTLCHKHGVCFLAADTRGLVGQLFCDFGEDFTVQDPTEAEPLTAAIQHISQGSPGILTLRKGANTHYFRDGDLVTFSGIEGMVELNDCDPRSIHVREDGSLEIGDTTTFSRYLRGGAITEVKRPKTVRHKSLDTALLQPHVVAQSSQEVHHAHCLHQAFCALHKFQHLHGRPPQPWDPVDAETVVGLARDLEPLKRTEEEPLEEPLDEALVRTVALSSAGVLSPMVAMLGAVAAQEVLKAISRKFMPLDQWLYFDALDCLPEDGELLPSPEDCALRGSRYDGQIAVFGAGFQEKLRRQHYLLVGAGAIGCELLKVFALVGLGAGNSGGLTVVDMDHIERSNLSRQFLFRSQDVGRPKAEVAAAAARGLNPDLQVIPLTYPLDPTTEHIYGDNFFSRVDGVAAALDSFQARRYVAARCTHYLKPLLEAGTSGTWGSATVFMPHVTEAYRAPASAAASEDAPYPVCTVRYFPSTAEHTLQWARHEFEELFRLSAETINHHQQAHTSLADMDEPQTLTLLKPVLGVLRVRPQNWQDCVAWALGHWKLCFHYGIKQLLRHFPPNKVLEDGTPFWSGPKQCPQPLEFDTNQDTHLLYVLAAANLYAQMHGLPGSQDWTALRELLKLLPQPDPQQMAPIFASNLELASASAEFGPEQQKELNKALEVWSVGPPLKPLMFEKDDDSNFHVDFVVAAASLRCQNYGIPPVNRAQSKRIVGQIIPAIATTTAAVAGLLGLELYKVVSGPRPRSAFRHSYLHLAENYLIRYMPFAPAIQTFHHLKWTSWDRLKVPAGQPERTLESLLAHLQEQHGLRVRILLHGSALLYAAGWSPEKQAQHLPLRVTELVQQLTGQAPAPGQRVLVLELSCEGDDEDTAFPPLHYEL
binds: all assays above

Source: article PMC5001722
